The values below come from PubChem BioAssay AID220 (DTP/NCI, 2004).

This assay concerns CD8F1 mice, subcutaneous mammary adenocarcinoma, T/C%. The assay is described as follows: NCI In Vivo Anticancer Drug Screen. Data for tumor model Mammary Adenocarcinoma CD8F1 (subcutaneous) in CD8F1. Particulars: vehicle: saline, higher = larger tumour. As to the method: The antitumor activity of compounds was measured in mice bearing transplantable tumors. Survival or tumor size were measured and the results are expressed as the measurement made in the treated group (T) divided by the measurement made in the vehicle treated control group (C). The tumor model used in this assay is Mammary Adenocarcinoma CD8F1 (subcutaneous) in CD8F1

SMILES strings stand for the structures. Where “and” joins values, the source holds several entries; their conditions need not be identical. Equal values may be shown once. Records with an inconclusive call do not appear.

Consider `COc1cc2c(c(OC)c1OC)-c1ccc(OC)c(=O)cc1[C@@H](N)CC2`, for which the T/C is 67 % of control (endpoint: mean tumor weight (est.), dose: 12.0 mg/kg/injection, schedule: Q07DX003 (ip)); 69 % of control (endpoint: mean tumor weight (est.), dose: 24.0 mg/kg/injection, schedule: Q07DX003 (ip)); 59 % of control (endpoint: mean tumor weight, dose: 3.0 mg/kg/injection, schedule: Q01DX009 (ip)); 45 % of control (endpoint: mean tumor weight, dose: 6.0 mg/kg/injection, schedule: Q01DX009 (ip)); 727 % of control (endpoint: mean tumor weight, dose: 6.0 mg/kg/injection, schedule: Q07DX005 (ip)); 34 % of control (endpoint: mean tumor weight, dose: 12.0 mg/kg/injection, schedule: Q01DX009 (ip)). Further, the T/C is, setting by setting: (endpoint: mean tumor weight, dose: 12.0 mg/kg/injection, schedule: Q07DX008 (ip)) 156 % of control; (endpoint: mean tumor weight, dose: 24.0 mg/kg/injection, schedule: Q07DX005 (ip)) 335 % of control and 689 % of control; (endpoint: mean tumor weight, dose: 24.0 mg/kg/injection, schedule: Q07DX008 (ip)) 45 % of control; (endpoint: mean tumor weight, dose: 48.0 mg/kg/injection, schedule: Q07DX005 (ip)) 359 % of control; (endpoint: median tumor weight (est.), dose: 5.0 mg/kg/injection, schedule: Q07DX005 (ip)) 73 % of control and 92 % of control; (endpoint: median tumor weight (est.), dose: 40.0 mg/kg/injection, schedule: Q07DX005 (ip)) 17 % of control. Besides, the T/C (endpoint: median tumor weight (est.), dose: 80.0 mg/kg/injection, schedule: Q07DX005 (ip)) is 8 % of control.
